No constants are given. Whether binding was seen depends on the method and setting. For part of these data: In cells and extracts the contact can be indirect. Some results given as binding are weak or reduced against the parent protein; the word gives no strength.
What was measured:
[1] = target: IQGAP1 (human (endogenous in HeLa)) (UniProt P46940); experiment: proximity ligation; Duolink In Situ Red Mouse/Rabbit on fixed HeLa cells (methanol, or 3.7% PFA for IQGAP1-CLIP170) in metaphase and anaphase; also Centrinone B-treated cells
His6-DIAPH1-NT = target: T1, His6-DIAPH1-NT (human, UniProt O60610 1-575); experiment: pull-down; 0.05 nmol His6-DIAPH1-NT immobilised on nickel-Sepharose beads, with or without equimolar GST-IQGAP1 or GST-RhoA (2 h), then equimolar MBP-DIAPH1-CT (2 h); 25 mM HEPES pH 7.5, 120 mM NaCl, 1 mM EGTA, 0.3% Triton X-100, 1 mM beta-mercaptoethanol; 4 °C; anti-MBP blot; both purified
T1 construct: human DIAPH1, N-terminal fragment, residues 1-575 of the 1272-residue protein; plasmid pET30a-DIAPH1-NT(1-575aa); Plasmid was a gift from J. Copeland; also called N-terminal fragment of DIAPH1; DIAPH1 N-terminal regulatory domains; source: E. coli BL21, purified (nickel-Sepharose)

Amino acid sequences for entries named in this document (tags omitted). A change or cut given only in a name is not applied to a line headed by its entry.
UniProt P46940: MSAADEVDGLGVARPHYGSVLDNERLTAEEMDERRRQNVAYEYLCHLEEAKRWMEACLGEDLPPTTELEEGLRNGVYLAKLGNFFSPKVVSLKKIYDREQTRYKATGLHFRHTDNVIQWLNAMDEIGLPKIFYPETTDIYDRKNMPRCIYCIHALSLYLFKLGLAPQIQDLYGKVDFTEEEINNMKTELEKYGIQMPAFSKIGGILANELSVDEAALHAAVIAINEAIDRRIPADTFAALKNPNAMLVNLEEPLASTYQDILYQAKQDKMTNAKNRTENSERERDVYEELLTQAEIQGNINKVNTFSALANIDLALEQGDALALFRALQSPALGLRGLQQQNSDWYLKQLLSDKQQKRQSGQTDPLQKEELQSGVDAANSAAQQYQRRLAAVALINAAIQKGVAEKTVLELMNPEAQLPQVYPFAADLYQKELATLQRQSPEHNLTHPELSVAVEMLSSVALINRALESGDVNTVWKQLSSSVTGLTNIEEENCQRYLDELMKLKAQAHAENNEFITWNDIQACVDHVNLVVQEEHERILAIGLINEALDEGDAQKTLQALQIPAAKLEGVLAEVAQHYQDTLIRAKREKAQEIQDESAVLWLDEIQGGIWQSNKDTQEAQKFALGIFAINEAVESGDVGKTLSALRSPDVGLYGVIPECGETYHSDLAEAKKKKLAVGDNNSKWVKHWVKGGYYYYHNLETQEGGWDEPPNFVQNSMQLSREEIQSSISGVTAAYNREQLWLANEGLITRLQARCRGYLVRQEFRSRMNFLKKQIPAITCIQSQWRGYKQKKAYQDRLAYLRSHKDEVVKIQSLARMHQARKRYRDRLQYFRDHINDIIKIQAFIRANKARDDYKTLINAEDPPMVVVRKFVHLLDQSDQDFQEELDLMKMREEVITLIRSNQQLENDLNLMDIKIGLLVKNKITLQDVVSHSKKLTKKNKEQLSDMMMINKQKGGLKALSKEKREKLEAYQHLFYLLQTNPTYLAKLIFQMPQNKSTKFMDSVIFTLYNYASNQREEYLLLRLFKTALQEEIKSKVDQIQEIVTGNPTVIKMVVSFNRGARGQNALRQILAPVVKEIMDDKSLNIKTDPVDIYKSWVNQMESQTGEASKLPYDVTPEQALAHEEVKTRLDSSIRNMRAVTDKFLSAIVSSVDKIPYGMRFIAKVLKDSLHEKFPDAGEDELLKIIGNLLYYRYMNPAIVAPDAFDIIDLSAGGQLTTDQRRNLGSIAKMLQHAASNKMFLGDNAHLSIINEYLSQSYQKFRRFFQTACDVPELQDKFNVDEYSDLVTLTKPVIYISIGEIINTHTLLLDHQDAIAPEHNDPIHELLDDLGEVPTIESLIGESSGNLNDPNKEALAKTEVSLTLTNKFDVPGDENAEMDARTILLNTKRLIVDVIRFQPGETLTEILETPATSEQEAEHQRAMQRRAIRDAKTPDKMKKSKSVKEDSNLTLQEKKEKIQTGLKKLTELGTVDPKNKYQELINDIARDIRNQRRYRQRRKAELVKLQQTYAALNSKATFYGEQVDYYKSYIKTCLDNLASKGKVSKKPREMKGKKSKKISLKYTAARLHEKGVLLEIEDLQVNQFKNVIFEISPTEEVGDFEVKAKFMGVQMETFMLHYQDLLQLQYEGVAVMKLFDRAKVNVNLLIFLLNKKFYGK
UniProt O60610: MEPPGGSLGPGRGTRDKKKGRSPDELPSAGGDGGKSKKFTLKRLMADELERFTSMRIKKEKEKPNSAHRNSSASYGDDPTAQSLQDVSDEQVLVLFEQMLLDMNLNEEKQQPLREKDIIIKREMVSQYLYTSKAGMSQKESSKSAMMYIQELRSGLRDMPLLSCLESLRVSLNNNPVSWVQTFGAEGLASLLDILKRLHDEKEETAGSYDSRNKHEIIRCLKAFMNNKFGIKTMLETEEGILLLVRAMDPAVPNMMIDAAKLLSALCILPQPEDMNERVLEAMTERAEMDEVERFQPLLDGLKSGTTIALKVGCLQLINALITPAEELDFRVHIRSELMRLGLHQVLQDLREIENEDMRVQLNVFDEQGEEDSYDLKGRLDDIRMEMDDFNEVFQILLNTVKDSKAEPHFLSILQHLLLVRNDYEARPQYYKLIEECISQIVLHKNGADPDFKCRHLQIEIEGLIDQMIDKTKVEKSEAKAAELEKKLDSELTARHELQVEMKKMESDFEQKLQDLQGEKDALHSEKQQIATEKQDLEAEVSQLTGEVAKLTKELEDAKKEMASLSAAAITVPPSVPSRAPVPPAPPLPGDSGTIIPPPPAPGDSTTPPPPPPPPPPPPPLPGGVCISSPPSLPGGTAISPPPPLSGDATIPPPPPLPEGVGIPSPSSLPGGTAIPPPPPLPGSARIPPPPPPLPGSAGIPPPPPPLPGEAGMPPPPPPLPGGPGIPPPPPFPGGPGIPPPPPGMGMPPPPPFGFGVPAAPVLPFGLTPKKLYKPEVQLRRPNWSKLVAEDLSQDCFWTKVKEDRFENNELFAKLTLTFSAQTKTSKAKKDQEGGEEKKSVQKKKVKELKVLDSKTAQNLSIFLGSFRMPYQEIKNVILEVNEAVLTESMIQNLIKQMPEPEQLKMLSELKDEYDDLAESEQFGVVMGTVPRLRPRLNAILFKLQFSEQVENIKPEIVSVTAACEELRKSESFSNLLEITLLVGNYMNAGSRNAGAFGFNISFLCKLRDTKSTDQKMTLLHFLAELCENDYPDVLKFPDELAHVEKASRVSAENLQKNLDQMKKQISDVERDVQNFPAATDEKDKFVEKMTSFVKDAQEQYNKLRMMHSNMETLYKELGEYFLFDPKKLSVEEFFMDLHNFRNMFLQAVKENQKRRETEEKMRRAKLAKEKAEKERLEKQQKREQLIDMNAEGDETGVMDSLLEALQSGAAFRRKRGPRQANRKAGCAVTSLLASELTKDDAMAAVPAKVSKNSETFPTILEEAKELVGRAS
UniProt P61586: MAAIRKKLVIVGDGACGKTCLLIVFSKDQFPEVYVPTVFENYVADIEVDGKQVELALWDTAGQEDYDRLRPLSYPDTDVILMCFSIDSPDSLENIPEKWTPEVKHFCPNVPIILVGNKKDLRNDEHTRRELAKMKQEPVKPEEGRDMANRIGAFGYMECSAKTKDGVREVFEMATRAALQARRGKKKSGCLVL

binding [1] | binding (His6-DIAPH1-NT) | Substance
binds | – | DIAPH1 (from UniProt O60610 1-1272)
– | binds | GST-IQGAP1 (from UniProt P46940 1-1657)
– | binds | GST-RhoA (from UniProt P61586 1-193)

Reference: paper PMC8065111 (Nature Communications, 2021)
